# Source: article PMC6401139
# The chains behind the UniProt entries cited, without tags or fusion partners. Where a name states a change or a piece, a line headed by the entry shows the natural chain unless it says otherwise. A line that says so, or that is headed by a name, gives the form on record, which may keep a tag or linker.
# FGFR2 (endogenous) (human (endogenous in DU145 and PC3)) (P21802, form named): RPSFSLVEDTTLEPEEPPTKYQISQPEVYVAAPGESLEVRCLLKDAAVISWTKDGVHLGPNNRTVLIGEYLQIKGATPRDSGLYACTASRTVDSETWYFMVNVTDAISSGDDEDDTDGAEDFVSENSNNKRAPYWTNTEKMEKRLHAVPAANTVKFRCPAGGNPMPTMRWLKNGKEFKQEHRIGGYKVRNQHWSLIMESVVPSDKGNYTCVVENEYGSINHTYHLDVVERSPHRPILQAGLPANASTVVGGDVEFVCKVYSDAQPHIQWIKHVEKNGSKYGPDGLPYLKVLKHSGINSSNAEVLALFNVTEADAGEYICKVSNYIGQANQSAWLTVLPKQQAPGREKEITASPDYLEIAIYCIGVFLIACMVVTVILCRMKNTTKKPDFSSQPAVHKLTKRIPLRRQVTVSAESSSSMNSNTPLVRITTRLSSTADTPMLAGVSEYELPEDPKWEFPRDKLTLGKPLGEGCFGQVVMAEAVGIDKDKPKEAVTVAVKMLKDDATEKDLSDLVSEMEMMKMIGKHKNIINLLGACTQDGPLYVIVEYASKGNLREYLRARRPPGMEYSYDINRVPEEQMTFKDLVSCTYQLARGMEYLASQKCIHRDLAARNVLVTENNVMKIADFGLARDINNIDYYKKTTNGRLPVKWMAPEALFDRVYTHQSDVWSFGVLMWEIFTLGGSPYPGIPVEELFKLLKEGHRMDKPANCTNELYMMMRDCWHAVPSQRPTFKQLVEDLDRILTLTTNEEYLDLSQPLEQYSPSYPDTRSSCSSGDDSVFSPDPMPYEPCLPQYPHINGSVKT
# UniProt Q99814: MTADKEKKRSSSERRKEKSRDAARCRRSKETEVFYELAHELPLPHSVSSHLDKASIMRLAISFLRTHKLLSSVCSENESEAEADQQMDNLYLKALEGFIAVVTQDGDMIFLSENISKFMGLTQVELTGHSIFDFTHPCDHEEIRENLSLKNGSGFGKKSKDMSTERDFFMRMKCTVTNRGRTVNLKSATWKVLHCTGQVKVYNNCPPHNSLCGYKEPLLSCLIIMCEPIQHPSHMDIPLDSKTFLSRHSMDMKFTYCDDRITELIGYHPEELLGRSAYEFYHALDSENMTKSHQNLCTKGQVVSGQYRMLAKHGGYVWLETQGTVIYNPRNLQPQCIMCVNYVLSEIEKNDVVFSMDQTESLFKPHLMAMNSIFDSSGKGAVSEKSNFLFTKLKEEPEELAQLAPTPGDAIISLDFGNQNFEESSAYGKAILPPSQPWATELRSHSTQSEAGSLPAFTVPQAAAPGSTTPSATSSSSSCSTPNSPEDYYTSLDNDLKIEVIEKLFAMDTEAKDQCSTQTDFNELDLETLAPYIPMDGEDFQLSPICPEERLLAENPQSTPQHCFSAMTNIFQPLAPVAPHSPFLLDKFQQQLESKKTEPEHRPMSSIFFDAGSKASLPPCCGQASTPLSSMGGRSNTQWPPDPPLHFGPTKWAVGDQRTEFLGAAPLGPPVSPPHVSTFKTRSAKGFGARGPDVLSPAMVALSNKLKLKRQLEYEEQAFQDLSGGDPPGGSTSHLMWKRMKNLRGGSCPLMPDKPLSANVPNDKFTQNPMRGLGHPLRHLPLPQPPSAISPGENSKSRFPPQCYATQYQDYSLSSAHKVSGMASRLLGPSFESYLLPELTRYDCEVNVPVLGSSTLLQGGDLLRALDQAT
# These are yes or no findings as the source states them, for the method shown. Binding seen in cells or lysates may run through a third protein. Some binding calls cover weakened binding; strength is not graded here.
# Biological target: FGFR2 (endogenous) (human (endogenous in DU145 and PC3)) (UniProt P21802)
# Assay: co-IP; endogenous proteins; DU145 and PC3 cells, normoxia or hypoxia 8 h; lysates precipitated with IgG or anti-FGFR2, protein A/G beads; immunoblot
row,binding,Substance
1,binds,HIF-1α (endogenous) (from UniProt Q16665-1 1-826)
2,binds,HIF-2α (endogenous) (from UniProt Q99814 1-870)
